Measured values taken from PubChem BioAssay AID1458 (National Center for Advancing Translational Sciences (NCATS), 2008).
The whole screen tested about 210,000 compounds, of which about 5,900 (2.8%) were called active. Another 5% or so got no clear call; they are omitted. The call rests on the fitted dose curve; in most records, active means well fitted activation curve with a large enough effect; inconclusive means small, poorly fitted or top-dose-only effect; inactive means no such curve, though single readings can be large or run the other way. The list shows a part of the results, in another mix than the full data. Entries without a call were filed so in the source.

assay: qHTS Assay for Enhancers of SMN2 Splice Variant Expression; settings: HEK293 SMN2-luciferase splicing reporter, luminescence, 30-36 h; activity change, positive = activation: at 46.1 µM (top of the series) unless noted; further: nearly all actives have a fitted effect of over 55% in size; on activity change, positive = activation: % of control where 0% means no effect
Outline: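 qHTS luciferase splicing reporter: luminescence rises when SMN2 exon 7 is included in transfected HEK293 cells. Compound exposure lasted 30-36 h at 37C, with 4.5 mM final sodium butyrate as control, followed by a ONE-Glo read.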
Potency means the concentration at half of the fitted maximal effect.

Structure (SMILES)	activity change, positive = activation	Potency
C=CCc1cccc(/C=N/NC(=O)CNc2cccc3ccccc23)c1O	-77.9%	–
COc1cc(/C=N/N2CCOCC2)ccc1OCc1ccc(Cl)cc1	–	active: 11.2 µM
COc1ccc2nc(NC(C)=O)sc2c1	–	active: 14.1 µM
CCOc1ccc(N(Cc2ccccc2)C(=O)c2nc(S(C)(=O)=O)ncc2Cl)cc1	inactive: -86.3%	–
Cc1nc(N2CCC(C)CC2)c2oc3ccccc3c2n1	inactive: -42.8%	–
CC1CCN(c2nc3ccc(C(=O)N4CCN(c5ccccc5)CC4)cc3s2)CC1	inactive: -60.9%	–
Cc1ccc(C(=O)N2c3ccc(F)cc3CCC2C)o1 (stereo not drawn)	30.9%	–
N#Cc1ccc(CSc2nnc(Cc3cccs3)n2Cc2ccco2)cc1	39.2%	–
CC(C)(C)NC[C@H](O)c1cc(O)cc(O)c1	inactive: 14.6% [at 20.6 µM]	–
CCS(=O)(=O)N1Cc2ccccc2CC1C(=O)Nc1nnc(SCc2ccc(F)cc2)s1 (stereo not drawn)	-87.8%	–
CCc1nnc(NC(=O)CSc2nc3c(cc2C#N)CCC3)s1	–	active: 12.6 µM
CCCC(=O)Nc1ccc(C(=O)N/N=C/c2ccc([N+](=O)[O-])o2)cc1	-91.5%	–
CCS(=O)(=O)c1ccc(C(=O)Nc2ccccc2)c(Cl)c1Cl	-76.7%	–
Cc1ccc2[nH]c(=O)c(CN(CC3CCCO3)S(=O)(=O)c3cccc4nsnc34)cc2c1 (stereo not drawn)	34%	–
O=[N+]([O-])c1cccc(/C([O-])=C(/C(=S)Nc2cccc3ccccc23)[n+]2ccccc2)c1	23.7%	–
CS(=O)(=O)NCCSCc1ccccc1	38.2%	–
Cc1cccc(Nc2nc(-c3ccccc3)c(C(=O)Nc3cccnc3)s2)c1	inactive: -91.7%	–
CCCCOC(=O)c1ccc(NS(=O)(=O)c2c(C)nc3scc(C)n3c2=O)cc1	inactive: -41.7%	–
O=C(Nc1ccc(-c2noc(-c3cccs3)n2)cc1)c1cccnc1	–	active: 1.26 µM
CCCCC(=O)Nc1cccc(-c2nc3ncccc3o2)c1	inactive: -28.6%	–
Cc1ccc(CC(=O)Nc2nc3c(s2)CCCC3)cc1	260%	–
Cc1cccc(/C=C/c2ccccc2)n1	inactive: 0.477%	–

Structure (SMILES)	activity change, positive = activation	Potency
CCSC1=N/C(=C\c2ccc3c(c2)OCO3)C(=O)S1	-14.1%	–
Cc1c(C=O)n(C)n(-c2ccccc2)c1=O	inactive: 22.8%	–
CC(Oc1ccccc1)C(=O)NC1=NCCS1 (stereo not drawn)	–	active: 14.1 µM
COc1cc2c(C(=O)N3CCN(c4ccccc4F)CC3)cn(C)c(=O)c2cc1OC	inactive: -45.6%	–
C=CCn1c(Cc2csc(N)n2)nnc1SCc1ccc(C(=O)OC)cc1	34.8%	–
CCOC(=O)c1ccc(NC(=S)N(CCN(C)C)Cc2cccs2)cc1	–	active: 3.55 µM
COc1ccc(OC)c2[nH]c(=O)c(CCNC(=O)C(=O)c3c(C)[nH]c4ccccc34)cc12	33.7%	–
COC(=O)c1c(N)c2ccccc2[nH]c1=O	39.9%	–
Cn1cc([N+](=O)[O-])c(C(=O)Nc2nc(-c3ccc(Cl)cc3)cs2)n1	inactive: -58.1%	–
Cc1cccc(Cn2c(SCc3ccc(C(=O)N4CCCCCC4)cc3)nc3ccncc32)c1	inactive: -64.8%	–
CCc1ccc2c(c1)c1nnc(NN)nc1n2CC	inactive: -30%	–
COc1ccccc1-n1cc(-c2ccc(C)cc2)nc1S(=O)(=O)CC(=O)Nc1ccccc1C(F)(F)F	38%	–
CCOC(=O)C1(CCSC)NC(c2ccco2)C2C(=O)N(CC)C(=O)C21 (stereo not drawn)	38.1%	–
O=[N+]([O-])c1ccc(Oc2cccc3cccnc23)c([N+](=O)[O-])c1	-77.8%	–
O=C1c2ccccc2C(=O)N1CC1c2ccccc2CCN1S(=O)(=O)c1cnc[nH]1 (stereo not drawn)	29.9%	–
Cc1cc(N2CCCC2)c(F)cc1/C=C\[N+](=O)[O-]	-99.6%	–
CCn1cc(C(=O)OCC(=O)NCc2ccc3c(c2)OCO3)c(=O)c2ccc(C)nc21	36.1%	–
CN(c1ccccc1C(=O)N1CCN(c2cccc(Cl)c2)CC1)S(C)(=O)=O	28.6%	–
CN1CCN(CC#CCn2c3ccccc3c3ccccc32)CC1	54%	–
O=C(CCC(=O)c1cccs1)NC1CCCCCC1	53.4%	–
Cc1cccc(C)c1Nc1c(-c2ccccc2F)nc2cccc(C)n12	inactive: -103%	–
COc1cc(S(=O)(=O)NCCOC23CC4CC(CC(C4)C2)C3)c(OC)cc1Cl	inactive: -57.9%	–

Structure (SMILES)	activity change, positive = activation	Potency
O=P(COCCO)(c1ccccc1)c1ccccc1	37.3%	–
Cc1ccc(N2CCN(c3ccc(NCc4nc5ccccc5n4C)cc3)CC2)cc1	inactive: -24.9%	–
CC1(C)Cc2c(sc3nnn(Cc4ccccc4)c(=O)c23)CO1	-49.8%	–
O=C(Nc1nccs1)c1ccc(-c2ccc([N+](=O)[O-])cc2)o1	–	active: 12.6 µM
O=C(NCCCl)c1ccc(OCc2ccccc2)cc1Cl	–	active: 12.6 µM
CCOC(=O)c1ccc(NS(=O)(=O)c2cnc[nH]2)cc1	23.2%	–
CCc1cc2c(=O)c(-c3nc4ccccc4[nH]3)coc2cc1OC(=O)N1CCOCC1	inactive: -34.8%	–
O=C(Nc1ccc(S(=O)(=O)N2CCc3ccccc32)cc1)c1ccc2c(c1)OCO2	inactive: -30.6%	–
CCN(C(=O)C1CCC(CNS(=O)(=O)c2cccc3nsnc23)CC1)c1ccc(C)c(C)c1 (stereo not drawn)	inactive: -7.15%	–
O=C(NC1CCCCCC1)c1ccc(OCC2CCCO2)cc1 (stereo not drawn)	–	active: 12.6 µM
CCCCc1c(C)c(C#N)c2[nH]c3ccccc3n2c1=O	-62.2%	–
Cc1ncc([N+](=O)[O-])n1CCO	0.915%	–
CSc1nnc(NC(=O)c2ccc(S(=O)(=O)N(C)C)cc2)s1	–	active: 12.6 µM
c1ccc(-c2csc3ncnc(NCCN4CCOCC4)c23)cc1	-66.5%	–
O=C(NC12CC3CC(CC(C3)C1)C2)c1ccc(-c2ccc(Br)cc2)o1	–	active: 15.8 µM
COCCCNC(=O)c1ccc(Cn2c(=O)c3ccccc3n(CC(=O)NCc3ccco3)c2=O)cc1	64%	–
CCSc1cc(C2C(C#N)=C(N)OC(C)=C2C(=O)OC)c(C)o1 (stereo not drawn)	34.1%	–
CCCc1ncc(C(O)c2ccccc2OC)n1C (stereo not drawn)	inactive: -33.3%	–
CC(=O)Nc1cccc(NC(=O)c2c(-c3ccccc3Cl)noc2C)c1	-30.4%	–
CCn1cc(C(=O)O)c(=O)c2cc(F)c(N/N=C/c3ccccc3)cc21	-78.7%	–
Cc1ccc(-c2cn(-c3ccc(SC(F)F)cc3)c3[n+]2CCC3)cc1	-59.8%	–
Cn1nc(C(=O)N2CCCC2)c2ccccc2c1=O	46.5%	–

Of the compounds above, four contain a cyano group.
Structure (SMILES)	activity change, positive = activation	Potency
N#Cc1ccc(CSc2nnc(Cc3cccs3)n2Cc2ccco2)cc1	39.2%	–
CCc1nnc(NC(=O)CSc2nc3c(cc2C#N)CCC3)s1	–	active: 12.6 µM
CCCCc1c(C)c(C#N)c2[nH]c3ccccc3n2c1=O	-62.2%	–
CCSc1cc(C2C(C#N)=C(N)OC(C)=C2C(=O)OC)c(C)o1 (stereo not drawn)	34.1%	–

Remaining list, next part

Structure (SMILES)	activity change, positive = activation	Potency
CCOC(=O)/C=C/c1cnn(-c2ccccc2)c1	71.7%	–
CCOC(=O)c1ccc(NC(=S)N2CCC(O)CC2)cc1	37.4%	–
COc1ccc2c(c1)C(=O)[C@@H](O)[C@H](c1ccc(OC)c(Br)c1)O2	–	inactive
CCCn1c(C)cc(C(=O)COC(=O)c2ccc[nH]c2=O)c1C	-10.8%	–
Cc1ccc(-n2ncc3ccccc3c2=O)cc1Cl	–	active: 14.1 µM
COC(=O)c1ccc(NC2CC(=O)N(c3ccccc3C)C2=O)cc1 (stereo not drawn)	33.6%	–
CCOC(=O)c1sc(=NC(=O)c2cccc(C)c2)n(C)c1C	–	active: 10 µM
CC(=O)n1nc(-c2ccc(Cl)cc2)nc1NCc1ccco1	39.3%	–
CC(=O)Oc1cc(OC(C)=O)c2c(c1)OC(c1ccc(OC(C)=O)c(OC(C)=O)c1)C(OC(C)=O)C2 (stereo not drawn)	–	inactive
CC(C)OC(=O)c1ccc(NC(=O)c2ccccc2)cc1	–	active: 12.6 µM
COc1ccccc1/C=N/NC(=S)Nc1cccnc1	51.8%	–
Cc1ccc(S(=O)(=O)N2CCC(=O)N(C(CO)C(C)C)CC2)cc1 (stereo not drawn)	39.3%	–
O=C(Nc1ccc(F)cc1)N(CCCN1CCOCC1)Cc1cc2cc3c(cc2[nH]c1=O)OCCO3	inactive: -52.6%	–
COC(=O)C1=C(O)/C(=C\c2ccc(O)c(OC)c2)N=C1C	35.9%	–
O=C(CSc1ncn(-c2ccccc2)n1)Nc1ccc(Br)cn1	30.9%	–
COCCCNC(=O)c1ccc(-c2csc(C)n2)cc1	75.6%	–
CCOC(=O)c1[nH]c2cc(OC)c(OC)cc2c1NC(=O)CN1CCN(C)CC1	32%	–
CCOC(=O)C(NC(C)=O)(NS(=O)(=O)c1ccccc1)C(F)(F)F (stereo not drawn)	32.7%	–
CSc1ncccc1C(=O)OCc1ccccc1Cl	36.1%	–
c1ccc(Cn2ccc(-c3cnc(-c4ccccc4)s3)n2)cc1	49%	–
O=[N+]([O-])c1cc(Br)c(O)c(/C=N/Nc2nc3ccccc3s2)c1	inactive: -60.1%	–
Fc1ccc(NC(=S)Nc2cccc3cnccc23)cc1	-42.9%	–

Structure (SMILES)	activity change, positive = activation	Potency
CN1/C(=C/C(=O)c2nc(S(C)(=O)=O)ncc2Cl)C(C)(C)c2ccccc21	-102%	–
O=C(Nc1ccccc1)Nc1ccc(C(=O)N2CCOCC2)cc1	–	active: 20 µM
FC(F)(F)c1cccc(N2CCN(C(=S)NCC3CCCO3)CC2)c1 (stereo not drawn)	inactive: -68.8%	–
Cc1cnc(C(=O)Nc2ccc(F)cc2)cn1	–	active: 12.6 µM
Cc1cccc(-c2nsc(SCC(=O)N3CCCC3)n2)c1	–	active: 14.1 µM
Cc1sc(NC(=O)C2CCCO2)c(C#N)c1C (stereo not drawn)	45.9%	–
COC(=O)CNC(=O)c1nn(-c2cccc(OC)c2)c(=O)c2ccccc12	36%	–
CCCOc1ccc(C(=O)ON=C2CCN(C)CC2)cc1	inactive: -24.6%	–
NC(=O)CSc1nnc(-c2cc3ccccc3o2)n1Cc1ccccc1	23.6%	–
CCOc1cc(CO)ccc1OCC(=O)N1CCCCC1	38.1%	–
CC(/C=N/NC(=O)Cc1cccs1)=C\c1ccccc1	69.7%	–
O=C(COC(=O)CCc1ccc(S(=O)(=O)N2CCOCC2)cc1)Nc1ccc(Cl)cn1	30.8%	–
COc1ccc(Cc2nc3ccccc3n2Cc2ccccc2F)cc1	inactive: -34.4%	–
O=C(Nc1nccs1)c1ccc(Br)c(S(=O)(=O)N2CCOCC2)c1	inactive: -48.6%	–
Cc1cc(C)c(C#N)c(SCc2nc3ccccc3[nH]2)n1	–	active: 10 µM
Cc1cc(NC(=O)CCC(=O)N(CC(=O)NC2CCCC2)Cc2ccco2)no1	32.3%	–
CCn1c(C(=O)N2CCCC(C(=O)N3CCN(c4cc(C)ccc4C)CC3)C2)cc2sccc21 (stereo not drawn)	inactive: -42.7%	–
Cc1ccc2nc(-c3ccc(NC(=O)COc4ccccc4)cc3)sc2c1	–	active: 1.26 µM
Cc1ccc(NS(=O)(=O)c2cccc(C(=O)NNC(=O)NC3CCCCC3)c2)c(C)c1	44.8%	–
Nc1c(C(=O)c2ccccc2)oc2ccc(Br)cc12	–	active: 15.8 µM
